# In PMC7975690:
# Protein sequences, listed by entry. Tags and fused reporters are not part of them. Residues count along the entry.
# UniProt P35222: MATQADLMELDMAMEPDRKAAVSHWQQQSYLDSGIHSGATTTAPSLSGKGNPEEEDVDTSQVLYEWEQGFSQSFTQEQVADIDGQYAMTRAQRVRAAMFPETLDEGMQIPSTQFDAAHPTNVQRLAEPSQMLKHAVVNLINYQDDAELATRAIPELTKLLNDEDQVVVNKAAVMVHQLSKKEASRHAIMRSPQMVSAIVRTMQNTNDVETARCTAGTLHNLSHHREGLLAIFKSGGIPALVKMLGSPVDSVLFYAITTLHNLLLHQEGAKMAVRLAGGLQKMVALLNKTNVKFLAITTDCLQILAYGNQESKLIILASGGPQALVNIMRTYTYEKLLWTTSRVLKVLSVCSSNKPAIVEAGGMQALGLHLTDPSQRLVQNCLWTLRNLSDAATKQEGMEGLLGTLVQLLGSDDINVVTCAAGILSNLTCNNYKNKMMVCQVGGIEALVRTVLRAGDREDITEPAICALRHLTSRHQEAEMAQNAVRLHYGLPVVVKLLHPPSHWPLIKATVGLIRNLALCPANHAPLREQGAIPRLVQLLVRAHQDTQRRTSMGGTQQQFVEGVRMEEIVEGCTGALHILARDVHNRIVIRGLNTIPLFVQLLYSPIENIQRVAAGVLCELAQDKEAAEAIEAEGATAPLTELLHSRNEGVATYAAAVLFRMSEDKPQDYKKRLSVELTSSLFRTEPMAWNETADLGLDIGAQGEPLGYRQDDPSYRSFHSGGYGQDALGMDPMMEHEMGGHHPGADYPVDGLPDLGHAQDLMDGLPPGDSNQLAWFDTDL
# UniProt Q12888: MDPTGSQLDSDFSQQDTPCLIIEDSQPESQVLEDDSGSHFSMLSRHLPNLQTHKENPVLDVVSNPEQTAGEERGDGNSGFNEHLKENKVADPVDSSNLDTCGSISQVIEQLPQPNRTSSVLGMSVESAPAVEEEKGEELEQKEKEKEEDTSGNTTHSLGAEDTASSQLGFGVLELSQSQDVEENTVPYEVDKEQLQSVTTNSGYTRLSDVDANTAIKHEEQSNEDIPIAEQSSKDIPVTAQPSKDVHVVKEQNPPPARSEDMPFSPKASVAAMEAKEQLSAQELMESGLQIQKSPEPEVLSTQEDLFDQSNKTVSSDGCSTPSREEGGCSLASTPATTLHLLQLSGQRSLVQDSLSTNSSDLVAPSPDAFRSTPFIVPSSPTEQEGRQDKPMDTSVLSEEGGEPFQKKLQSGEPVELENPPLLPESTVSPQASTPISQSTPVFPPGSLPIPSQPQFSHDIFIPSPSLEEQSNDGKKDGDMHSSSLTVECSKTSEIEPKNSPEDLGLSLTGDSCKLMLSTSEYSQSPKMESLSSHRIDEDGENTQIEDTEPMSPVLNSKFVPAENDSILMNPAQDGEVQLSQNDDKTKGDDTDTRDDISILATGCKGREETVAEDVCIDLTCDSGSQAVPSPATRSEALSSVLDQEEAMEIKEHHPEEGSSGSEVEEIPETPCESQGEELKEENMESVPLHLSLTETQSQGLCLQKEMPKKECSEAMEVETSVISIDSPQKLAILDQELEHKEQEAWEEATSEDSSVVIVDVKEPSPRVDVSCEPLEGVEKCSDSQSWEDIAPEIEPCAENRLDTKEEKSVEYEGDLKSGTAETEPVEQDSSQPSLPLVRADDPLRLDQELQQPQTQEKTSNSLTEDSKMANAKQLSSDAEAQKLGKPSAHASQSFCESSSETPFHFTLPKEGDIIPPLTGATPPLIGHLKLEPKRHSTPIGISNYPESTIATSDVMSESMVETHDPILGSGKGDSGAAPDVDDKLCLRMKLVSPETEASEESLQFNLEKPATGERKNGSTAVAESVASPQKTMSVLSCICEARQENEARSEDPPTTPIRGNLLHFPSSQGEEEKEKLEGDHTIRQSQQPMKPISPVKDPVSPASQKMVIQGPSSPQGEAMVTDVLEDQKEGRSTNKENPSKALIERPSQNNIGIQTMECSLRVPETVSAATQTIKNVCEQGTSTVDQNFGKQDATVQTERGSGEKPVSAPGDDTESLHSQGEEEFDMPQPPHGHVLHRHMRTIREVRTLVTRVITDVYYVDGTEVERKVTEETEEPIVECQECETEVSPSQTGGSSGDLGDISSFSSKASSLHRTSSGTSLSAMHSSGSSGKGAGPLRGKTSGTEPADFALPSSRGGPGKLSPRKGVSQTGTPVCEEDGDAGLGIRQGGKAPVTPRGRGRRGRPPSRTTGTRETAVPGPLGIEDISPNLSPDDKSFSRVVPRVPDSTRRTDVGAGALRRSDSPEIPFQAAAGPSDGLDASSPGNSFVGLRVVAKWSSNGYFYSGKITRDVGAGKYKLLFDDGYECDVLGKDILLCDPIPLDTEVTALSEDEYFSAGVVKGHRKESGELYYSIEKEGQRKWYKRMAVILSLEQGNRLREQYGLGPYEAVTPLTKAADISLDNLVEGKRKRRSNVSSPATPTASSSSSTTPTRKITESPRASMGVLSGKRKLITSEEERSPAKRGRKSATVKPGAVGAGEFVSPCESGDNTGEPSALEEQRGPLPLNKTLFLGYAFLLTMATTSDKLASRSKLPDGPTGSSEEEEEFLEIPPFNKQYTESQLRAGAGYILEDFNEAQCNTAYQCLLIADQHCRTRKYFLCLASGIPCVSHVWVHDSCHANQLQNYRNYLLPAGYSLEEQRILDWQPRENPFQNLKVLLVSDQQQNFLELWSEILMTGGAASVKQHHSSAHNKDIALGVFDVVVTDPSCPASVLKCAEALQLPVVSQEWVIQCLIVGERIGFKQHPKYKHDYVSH
# UniProt P40199, residues 35-320: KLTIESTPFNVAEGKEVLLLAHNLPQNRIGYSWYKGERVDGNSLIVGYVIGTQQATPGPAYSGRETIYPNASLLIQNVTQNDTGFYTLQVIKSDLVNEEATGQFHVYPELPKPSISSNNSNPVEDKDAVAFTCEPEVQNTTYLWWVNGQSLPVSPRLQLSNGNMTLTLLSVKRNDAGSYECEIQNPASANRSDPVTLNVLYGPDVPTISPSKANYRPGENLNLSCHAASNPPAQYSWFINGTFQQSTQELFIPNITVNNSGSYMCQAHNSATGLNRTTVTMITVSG
# UniProt O75197, residues 32-1615: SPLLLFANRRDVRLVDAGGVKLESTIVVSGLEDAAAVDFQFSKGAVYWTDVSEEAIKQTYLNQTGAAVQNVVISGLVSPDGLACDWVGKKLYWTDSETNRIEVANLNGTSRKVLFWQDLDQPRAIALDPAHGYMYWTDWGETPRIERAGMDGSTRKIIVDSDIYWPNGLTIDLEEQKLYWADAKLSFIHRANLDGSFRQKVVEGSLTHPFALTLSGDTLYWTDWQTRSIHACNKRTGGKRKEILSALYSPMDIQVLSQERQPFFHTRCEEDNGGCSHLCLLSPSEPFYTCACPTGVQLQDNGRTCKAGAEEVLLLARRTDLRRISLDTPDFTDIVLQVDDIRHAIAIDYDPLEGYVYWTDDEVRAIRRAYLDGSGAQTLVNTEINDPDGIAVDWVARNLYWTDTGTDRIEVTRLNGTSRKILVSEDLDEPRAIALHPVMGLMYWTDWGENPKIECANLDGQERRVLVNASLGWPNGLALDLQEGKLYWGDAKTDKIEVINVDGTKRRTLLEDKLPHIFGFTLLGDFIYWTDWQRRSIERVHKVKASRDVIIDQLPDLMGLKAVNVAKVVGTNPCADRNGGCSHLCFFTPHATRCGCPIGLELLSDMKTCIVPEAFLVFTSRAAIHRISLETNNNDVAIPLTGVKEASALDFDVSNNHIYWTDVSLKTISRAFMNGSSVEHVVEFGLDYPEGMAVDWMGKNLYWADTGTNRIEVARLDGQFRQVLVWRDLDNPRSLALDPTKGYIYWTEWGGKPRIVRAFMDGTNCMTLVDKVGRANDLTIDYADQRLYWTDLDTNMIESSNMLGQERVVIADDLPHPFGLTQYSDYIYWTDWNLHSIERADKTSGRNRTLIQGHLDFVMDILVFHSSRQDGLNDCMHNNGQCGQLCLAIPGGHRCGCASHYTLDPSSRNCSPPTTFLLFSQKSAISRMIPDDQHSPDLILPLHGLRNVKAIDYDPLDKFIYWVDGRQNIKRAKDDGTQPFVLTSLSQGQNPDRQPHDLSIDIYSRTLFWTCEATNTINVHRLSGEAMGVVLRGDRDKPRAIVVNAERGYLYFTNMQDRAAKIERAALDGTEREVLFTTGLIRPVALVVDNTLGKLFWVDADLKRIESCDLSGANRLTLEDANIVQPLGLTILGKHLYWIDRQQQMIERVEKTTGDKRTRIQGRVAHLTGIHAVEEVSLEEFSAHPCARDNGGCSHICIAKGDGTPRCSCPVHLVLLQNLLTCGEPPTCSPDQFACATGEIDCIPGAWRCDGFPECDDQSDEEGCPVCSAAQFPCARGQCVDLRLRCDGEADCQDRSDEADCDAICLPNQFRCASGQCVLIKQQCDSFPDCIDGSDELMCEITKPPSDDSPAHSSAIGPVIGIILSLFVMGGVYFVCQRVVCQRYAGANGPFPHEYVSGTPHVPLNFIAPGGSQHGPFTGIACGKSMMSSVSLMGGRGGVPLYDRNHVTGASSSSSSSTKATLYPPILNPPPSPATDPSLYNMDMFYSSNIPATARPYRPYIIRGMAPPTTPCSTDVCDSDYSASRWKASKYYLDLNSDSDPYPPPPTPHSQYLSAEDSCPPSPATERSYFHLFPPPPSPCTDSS
# UniProt P01137, residues 279-390: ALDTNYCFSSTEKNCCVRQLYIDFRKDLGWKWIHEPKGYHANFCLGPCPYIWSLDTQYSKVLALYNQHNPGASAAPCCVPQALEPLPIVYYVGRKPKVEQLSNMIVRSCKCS
# No constants are given. Whether binding was seen depends on the method and setting. In cells and extracts the contact can be indirect. Here binding means that the protein was enriched with, or labelled near, the bait; the list need not be complete.
# T1: CD151 (human (endogenous in HT29)) (UniProt P48509)
# T1 sequence: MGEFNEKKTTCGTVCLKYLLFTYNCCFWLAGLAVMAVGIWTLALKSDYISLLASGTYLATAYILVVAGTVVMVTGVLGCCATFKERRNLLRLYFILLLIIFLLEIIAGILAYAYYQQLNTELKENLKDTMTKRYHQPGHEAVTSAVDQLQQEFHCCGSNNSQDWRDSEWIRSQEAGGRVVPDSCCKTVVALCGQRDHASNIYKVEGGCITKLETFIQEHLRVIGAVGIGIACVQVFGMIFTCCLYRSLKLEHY
# B1: leucine-rich repeat-containing G-protein coupled receptor 5 (LGR5) (receptor, UniProt O75473 22-907)
# chain: GSSPRSGVLLRGCPTHCHCEPDGRMLLRVDCSDLGLSELPSNLSVFTSYLDLSMNNISQLLPNPLPSLRFLEELRLAGNALTYIPKGAFTGLYSLKVLMLQNNQLRHVPTEALQNLRSLQSLRLDANHISYVPPSCFSGLHSLRHLWLDDNALTEIPVQAFRSLSALQAMTLALNKIHHIPDYAFGNLSSLVVLHLHNNRIHSLGKKCFDGLHSLETLDLNYNNLDEFPTAIRTLSNLKELGFHSNNIRSIPEKAFVGNPSLITIHFYDNPIQFVGRSAFQHLPELRTLTLNGASQITEFPDLTGTANLESLTLTGAQISSLPQTVCNQLPNLQVLDLSYNLLEDLPSFSVCQKLQKIDLRHNEIYEIKVDTFQQLLSLRSLNLAWNKIAIIHPNAFSTLPSLIKLDLSSNLLSSFPITGLHGLTHLKLTGNHALQSLISSENFPELKVIEMPYAYQCCAFGVCENAYKISNQWNKGDNSSMDDLHKKDAGMFQAQDERDLEDFLLDFEEDLKALHSVQCSPSPGPFKPCEHLLDGWLIRIGVWTIAVLALTCNALVTSTVFRSPLYISPIKLLIGVIAAVNMLTGVSSAVLAGVDAFTFGSFARHGAWWENGVGCHVIGFLSIFASESSVFLLTLAALERGFSVKYSAKFETKAPFSSLKVIILLCALLALTMAAVPLLGGSKYGASPLCLPLPFGEPSTMGYMVALILLNSLCFLMMTIAYTKLYCNLDKGDLENIWDCSMVKHIALLLFTNCILNCPVAFLSFSSLINLTFISPEVIKFILLVVVPLPACLNPLLYILFNPHFKEDLVSLRKQTYVWTRSKHPSLMSINSDDVEKQSCDSTQALVTFTSSSITYDLPPSSVPSPAYPVTESCHLSSVAFVPCL
# Target: T1, CD151 (human (endogenous in HT29))
# Assay: affinity purification with mass spectrometry; HT29 whole cell extract (25 mM Tris, 150 mM NaCl, 1 mM EDTA, 1% NP-40, 5% glycerol, pH 7.4) immunoprecipitated with anti-CD151 antibody or control normal mouse IgG plus protein A Sepharose overnight at 4 °C; gel bands digested and analysed by mass spectrometry
row,binding,Molecule
1,binds,B1

# Target: T1, CD151 (human (endogenous in HT29))
# Assay: as above
# Remark: another data set of the same source
row,binding,Molecule
1,binds,CTNB1 (from UniProt P35222 1-781)
2,binds,TP53BP1 (from UniProt Q12888 1-1972)
3,binds,carcinoembryonic antigen-related cell adhesion molecule 6 (CEACAM6) (from UniProt P40199 35-320)
4,binds,low-density lipoprotein receptor-related protein (LRP) 5 (LRP5) (from UniProt O75197 32-1615)
5,binds,transforming growth factor β1 (TGFβ1) (from UniProt P01137 279-390)
